# From the supplement of paper PMC6411743
# The chains behind the UniProt entries cited, without tags or fusion partners. Where a name states a change or a piece, a line headed by the entry shows the natural chain unless it says otherwise.
# UniProt P57768: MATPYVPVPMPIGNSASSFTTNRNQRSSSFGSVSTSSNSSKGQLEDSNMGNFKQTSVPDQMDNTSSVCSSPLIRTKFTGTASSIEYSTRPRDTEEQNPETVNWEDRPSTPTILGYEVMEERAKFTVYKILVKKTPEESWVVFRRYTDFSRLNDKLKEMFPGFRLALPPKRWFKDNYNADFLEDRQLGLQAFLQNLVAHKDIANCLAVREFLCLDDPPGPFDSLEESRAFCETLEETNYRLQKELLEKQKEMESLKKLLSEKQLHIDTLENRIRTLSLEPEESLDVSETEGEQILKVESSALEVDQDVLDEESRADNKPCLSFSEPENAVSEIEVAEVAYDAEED
# UniProt P56524: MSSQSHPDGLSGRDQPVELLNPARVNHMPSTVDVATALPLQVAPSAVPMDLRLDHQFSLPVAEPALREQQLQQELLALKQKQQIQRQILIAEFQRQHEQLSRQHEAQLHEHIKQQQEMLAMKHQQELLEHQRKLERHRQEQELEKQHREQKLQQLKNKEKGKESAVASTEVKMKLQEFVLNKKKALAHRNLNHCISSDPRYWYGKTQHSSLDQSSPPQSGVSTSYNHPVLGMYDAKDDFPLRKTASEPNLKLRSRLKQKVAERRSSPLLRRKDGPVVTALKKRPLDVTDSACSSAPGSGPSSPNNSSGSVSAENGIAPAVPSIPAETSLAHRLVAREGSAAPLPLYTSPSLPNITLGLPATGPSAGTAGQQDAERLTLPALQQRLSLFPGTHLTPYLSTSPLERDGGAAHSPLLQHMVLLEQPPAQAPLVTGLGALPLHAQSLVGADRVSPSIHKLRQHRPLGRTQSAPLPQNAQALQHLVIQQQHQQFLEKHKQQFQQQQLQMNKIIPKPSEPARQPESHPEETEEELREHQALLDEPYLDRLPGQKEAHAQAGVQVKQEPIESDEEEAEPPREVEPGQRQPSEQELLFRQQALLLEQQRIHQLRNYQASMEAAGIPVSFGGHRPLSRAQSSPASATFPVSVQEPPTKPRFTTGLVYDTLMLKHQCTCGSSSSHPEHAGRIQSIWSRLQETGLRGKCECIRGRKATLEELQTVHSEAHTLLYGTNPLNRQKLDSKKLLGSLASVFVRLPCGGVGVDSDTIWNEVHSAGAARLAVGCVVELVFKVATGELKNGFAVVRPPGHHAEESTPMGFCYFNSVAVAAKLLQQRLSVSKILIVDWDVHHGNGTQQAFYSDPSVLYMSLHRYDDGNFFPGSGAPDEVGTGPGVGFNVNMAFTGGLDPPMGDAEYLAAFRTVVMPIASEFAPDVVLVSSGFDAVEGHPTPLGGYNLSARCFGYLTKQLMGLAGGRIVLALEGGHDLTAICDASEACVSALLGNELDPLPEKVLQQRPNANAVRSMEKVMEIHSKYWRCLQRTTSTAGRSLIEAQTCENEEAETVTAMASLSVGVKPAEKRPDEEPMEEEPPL
# UniProt P56962: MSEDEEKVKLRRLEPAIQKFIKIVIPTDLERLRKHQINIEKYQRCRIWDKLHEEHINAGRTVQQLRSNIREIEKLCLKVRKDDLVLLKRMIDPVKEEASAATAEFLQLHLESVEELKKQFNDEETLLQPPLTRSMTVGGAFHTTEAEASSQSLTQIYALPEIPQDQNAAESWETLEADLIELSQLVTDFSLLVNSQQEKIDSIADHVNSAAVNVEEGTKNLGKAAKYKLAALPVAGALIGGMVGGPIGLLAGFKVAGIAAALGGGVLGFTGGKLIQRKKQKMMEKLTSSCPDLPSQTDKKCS
# UniProt P55957: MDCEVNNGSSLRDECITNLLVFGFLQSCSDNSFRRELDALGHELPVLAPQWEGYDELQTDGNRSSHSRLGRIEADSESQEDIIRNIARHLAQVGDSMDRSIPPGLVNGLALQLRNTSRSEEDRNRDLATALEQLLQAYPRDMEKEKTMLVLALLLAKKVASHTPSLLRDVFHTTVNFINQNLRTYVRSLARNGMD
# UniProt P82970: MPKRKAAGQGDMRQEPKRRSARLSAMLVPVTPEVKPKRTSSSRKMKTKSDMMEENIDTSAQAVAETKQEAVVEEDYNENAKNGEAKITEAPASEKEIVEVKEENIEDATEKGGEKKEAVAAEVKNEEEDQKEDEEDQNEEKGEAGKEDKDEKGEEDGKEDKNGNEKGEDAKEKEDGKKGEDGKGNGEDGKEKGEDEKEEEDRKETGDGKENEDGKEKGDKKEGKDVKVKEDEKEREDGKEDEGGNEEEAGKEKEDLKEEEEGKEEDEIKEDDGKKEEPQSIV
# UniProt P53801: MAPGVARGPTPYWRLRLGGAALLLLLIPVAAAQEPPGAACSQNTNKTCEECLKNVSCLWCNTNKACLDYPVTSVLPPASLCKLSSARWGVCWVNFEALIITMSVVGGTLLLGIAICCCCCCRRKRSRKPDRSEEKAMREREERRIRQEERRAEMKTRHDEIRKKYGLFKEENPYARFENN
# UniProt P55160: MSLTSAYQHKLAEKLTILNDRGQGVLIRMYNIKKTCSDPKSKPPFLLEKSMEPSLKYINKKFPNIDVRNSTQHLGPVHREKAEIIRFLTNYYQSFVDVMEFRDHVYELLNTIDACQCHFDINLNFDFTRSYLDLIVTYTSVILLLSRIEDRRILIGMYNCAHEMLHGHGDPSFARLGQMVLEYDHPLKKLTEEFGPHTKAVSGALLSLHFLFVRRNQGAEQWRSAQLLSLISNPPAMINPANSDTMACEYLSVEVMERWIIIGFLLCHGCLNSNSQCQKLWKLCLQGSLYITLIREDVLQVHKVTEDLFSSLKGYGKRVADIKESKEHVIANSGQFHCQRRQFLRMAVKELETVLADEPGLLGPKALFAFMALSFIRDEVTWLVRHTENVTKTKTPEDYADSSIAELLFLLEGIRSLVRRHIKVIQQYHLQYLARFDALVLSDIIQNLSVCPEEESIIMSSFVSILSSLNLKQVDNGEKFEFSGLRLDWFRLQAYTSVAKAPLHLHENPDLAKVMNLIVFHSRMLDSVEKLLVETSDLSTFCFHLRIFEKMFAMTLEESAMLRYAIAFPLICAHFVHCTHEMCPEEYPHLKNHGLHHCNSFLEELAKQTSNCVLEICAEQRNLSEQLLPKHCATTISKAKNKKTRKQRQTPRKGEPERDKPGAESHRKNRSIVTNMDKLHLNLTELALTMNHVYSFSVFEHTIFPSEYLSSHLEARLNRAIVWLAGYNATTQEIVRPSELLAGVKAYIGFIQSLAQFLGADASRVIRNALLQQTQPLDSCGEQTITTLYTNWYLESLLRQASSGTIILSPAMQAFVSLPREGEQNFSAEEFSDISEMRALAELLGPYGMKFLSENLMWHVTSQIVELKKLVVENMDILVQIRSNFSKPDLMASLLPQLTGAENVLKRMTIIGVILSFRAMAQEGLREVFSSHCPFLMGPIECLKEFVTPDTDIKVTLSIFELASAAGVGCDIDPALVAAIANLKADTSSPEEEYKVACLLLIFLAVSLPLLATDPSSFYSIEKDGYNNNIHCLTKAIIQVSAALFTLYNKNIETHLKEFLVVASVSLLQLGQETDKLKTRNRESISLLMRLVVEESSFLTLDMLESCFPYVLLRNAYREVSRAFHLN
# UniProt P80217: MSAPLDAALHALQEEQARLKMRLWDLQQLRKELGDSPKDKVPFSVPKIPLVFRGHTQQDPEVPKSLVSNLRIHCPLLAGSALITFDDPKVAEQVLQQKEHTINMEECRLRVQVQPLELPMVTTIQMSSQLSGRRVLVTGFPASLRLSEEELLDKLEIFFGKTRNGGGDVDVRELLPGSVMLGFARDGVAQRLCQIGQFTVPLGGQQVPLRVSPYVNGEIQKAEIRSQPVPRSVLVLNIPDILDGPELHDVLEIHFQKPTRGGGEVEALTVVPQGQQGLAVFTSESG
# UniProt P55735: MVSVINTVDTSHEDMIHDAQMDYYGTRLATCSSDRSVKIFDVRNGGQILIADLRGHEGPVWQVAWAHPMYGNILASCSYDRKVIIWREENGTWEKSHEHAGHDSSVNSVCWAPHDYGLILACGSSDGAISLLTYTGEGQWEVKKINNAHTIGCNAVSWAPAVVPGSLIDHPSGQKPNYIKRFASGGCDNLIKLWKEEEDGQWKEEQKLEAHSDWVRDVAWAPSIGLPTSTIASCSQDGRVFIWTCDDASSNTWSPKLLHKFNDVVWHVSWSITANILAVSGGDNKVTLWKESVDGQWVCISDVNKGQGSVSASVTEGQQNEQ
# UniProt P60900, whole entry: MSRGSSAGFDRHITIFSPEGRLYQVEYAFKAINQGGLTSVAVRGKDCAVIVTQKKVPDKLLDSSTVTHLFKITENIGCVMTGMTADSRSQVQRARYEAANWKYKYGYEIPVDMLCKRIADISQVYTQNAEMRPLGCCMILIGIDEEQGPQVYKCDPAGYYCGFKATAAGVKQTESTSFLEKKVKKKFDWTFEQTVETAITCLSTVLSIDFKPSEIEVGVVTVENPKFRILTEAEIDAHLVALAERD
# UniProt Q00653: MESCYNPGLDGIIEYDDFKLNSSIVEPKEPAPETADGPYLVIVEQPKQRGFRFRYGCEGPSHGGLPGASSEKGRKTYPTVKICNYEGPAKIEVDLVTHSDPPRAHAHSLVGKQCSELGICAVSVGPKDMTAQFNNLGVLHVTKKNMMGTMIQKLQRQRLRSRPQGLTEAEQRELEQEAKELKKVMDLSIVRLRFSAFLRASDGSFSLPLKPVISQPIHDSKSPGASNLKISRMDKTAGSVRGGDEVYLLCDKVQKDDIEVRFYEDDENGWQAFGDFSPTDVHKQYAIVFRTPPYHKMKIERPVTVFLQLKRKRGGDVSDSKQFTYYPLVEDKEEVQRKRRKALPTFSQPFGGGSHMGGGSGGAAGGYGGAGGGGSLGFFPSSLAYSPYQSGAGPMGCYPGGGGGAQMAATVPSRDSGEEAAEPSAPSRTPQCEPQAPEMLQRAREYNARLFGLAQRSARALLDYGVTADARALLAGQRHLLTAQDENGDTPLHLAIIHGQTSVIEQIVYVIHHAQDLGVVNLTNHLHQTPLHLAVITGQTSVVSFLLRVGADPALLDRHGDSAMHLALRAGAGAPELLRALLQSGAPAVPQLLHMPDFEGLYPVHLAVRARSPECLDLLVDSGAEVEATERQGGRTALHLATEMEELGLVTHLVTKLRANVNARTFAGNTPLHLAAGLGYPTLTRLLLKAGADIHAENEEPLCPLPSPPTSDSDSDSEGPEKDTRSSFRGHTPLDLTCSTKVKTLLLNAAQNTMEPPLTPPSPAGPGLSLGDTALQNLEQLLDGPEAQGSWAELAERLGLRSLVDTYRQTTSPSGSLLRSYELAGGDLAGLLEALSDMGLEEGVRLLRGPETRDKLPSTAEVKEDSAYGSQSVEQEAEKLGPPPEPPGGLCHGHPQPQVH
# UniProt P60228, whole entry: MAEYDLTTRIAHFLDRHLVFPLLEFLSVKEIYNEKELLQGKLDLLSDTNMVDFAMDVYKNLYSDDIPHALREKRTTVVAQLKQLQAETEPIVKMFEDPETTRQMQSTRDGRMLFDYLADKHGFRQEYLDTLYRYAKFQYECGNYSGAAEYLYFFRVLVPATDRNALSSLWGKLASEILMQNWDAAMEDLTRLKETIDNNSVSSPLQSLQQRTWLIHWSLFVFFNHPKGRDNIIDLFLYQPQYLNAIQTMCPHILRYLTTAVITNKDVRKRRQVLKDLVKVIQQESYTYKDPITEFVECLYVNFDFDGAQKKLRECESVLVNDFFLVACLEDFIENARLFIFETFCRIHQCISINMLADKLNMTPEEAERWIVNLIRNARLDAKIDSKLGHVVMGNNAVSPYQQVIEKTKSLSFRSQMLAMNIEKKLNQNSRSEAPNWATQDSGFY
# UniProt P63218: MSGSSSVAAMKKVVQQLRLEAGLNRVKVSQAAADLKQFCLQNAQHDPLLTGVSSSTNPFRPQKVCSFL
# UniProt P55010, whole entry: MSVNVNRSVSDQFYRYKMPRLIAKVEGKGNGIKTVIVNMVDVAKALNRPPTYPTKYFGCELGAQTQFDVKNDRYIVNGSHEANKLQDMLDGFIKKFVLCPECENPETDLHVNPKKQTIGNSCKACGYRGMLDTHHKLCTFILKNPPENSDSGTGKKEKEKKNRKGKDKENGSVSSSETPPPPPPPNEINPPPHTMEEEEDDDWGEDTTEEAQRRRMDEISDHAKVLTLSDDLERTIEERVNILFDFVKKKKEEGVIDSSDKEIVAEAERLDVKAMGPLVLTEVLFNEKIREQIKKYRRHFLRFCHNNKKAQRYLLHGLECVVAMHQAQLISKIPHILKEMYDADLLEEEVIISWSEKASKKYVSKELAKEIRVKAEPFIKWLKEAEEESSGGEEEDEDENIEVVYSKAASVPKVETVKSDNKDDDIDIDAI
# UniProt P59190: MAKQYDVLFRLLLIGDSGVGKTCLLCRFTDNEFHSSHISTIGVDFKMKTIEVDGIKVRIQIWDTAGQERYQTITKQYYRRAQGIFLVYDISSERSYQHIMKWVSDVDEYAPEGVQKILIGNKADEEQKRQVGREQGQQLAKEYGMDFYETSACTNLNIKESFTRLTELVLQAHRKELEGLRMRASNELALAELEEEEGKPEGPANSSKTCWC
# UniProt P56181: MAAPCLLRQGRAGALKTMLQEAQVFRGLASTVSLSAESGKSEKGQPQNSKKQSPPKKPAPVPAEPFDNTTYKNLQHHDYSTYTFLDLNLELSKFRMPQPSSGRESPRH
# ± gives the standard deviation of the averaged measurements. The entries are a selection whose mix differs from that of the whole data set. Most values lie at the level of the controls, where differences are scatter.
# Compound: Nc1ncnc2c1ncn2[C@@H]1O[C@H](COP(=O)(O)OP(=O)(O)OP(=O)(O)O)[C@@H](O)[C@H]1O [adenosine triphosphate]
# Test: NP40-soluble protein abundance relative to vehicle (solubility fold change) (ratio); higher = more soluble protein in presence of ATP
# How it was run: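 Data come from three independent experiments in which Dounce-homogenised Jurkat crude lysate was treated at eight concentrations from 0.1 to 10 mM. Treatment ran 10 min at room temperature and then 3 min at 37 °C, after which 0.8% NP40 and benzonase were added for 60 min at 4 °C before ultracentrifugation. The supernatant underwent TMT labelling and LC-MS/MS, and vsn-normalised intensities were expressed as fold change against the detergent-processed vehicle in each replicate.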
target,measurement,setting,value
P68032 and related entries (UniProt P68133+P68032),NP40-soluble protein abundance,concentration: 0.1mM,1.14 ± 0.062
same,NP40-soluble protein abundance,concentration: 0.5mM,1.13 ± 0.05
UniProt P78563 and related entries,NP40-soluble protein abundance,concentration: 0.1mM,1.07 ± 0.085
same,NP40-soluble protein abundance,concentration: 0.5mM,1.08 ± 0.052
UniProt P57768 and related entries,NP40-soluble protein abundance,concentration: 0.1mM,1.04 ± 0.041
same,NP40-soluble protein abundance,concentration: 0.5mM,1.01 ± 0.036
UniProt P62805,NP40-soluble protein abundance,concentration: 0.1mM,0.84 ± 0.12
same,NP40-soluble protein abundance,concentration: 0.5mM,0.777 ± 0.083
HDAC4 (UniProt P56524),NP40-soluble protein abundance,concentration: 0.1mM,1.04 ± 0.1
same,NP40-soluble protein abundance,concentration: 0.5mM,0.987 ± 0.078
UniProt P61981,NP40-soluble protein abundance,concentration: 0.1mM,0.977 ± 0.17
same,NP40-soluble protein abundance,concentration: 0.5mM,0.741 ± 0.14
SUB1 (UniProt P53999),NP40-soluble protein abundance,concentration: 0.1mM,0.892 ± 0.067
same,NP40-soluble protein abundance,concentration: 0.5mM,0.87 ± 0.15
STX17 (UniProt P56962),NP40-soluble protein abundance,concentration: 0.1mM,0.977 ± 0.041
same,NP40-soluble protein abundance,concentration: 0.5mM,0.999 ± 0.012
UniProt P55957 and related entries,NP40-soluble protein abundance,concentration: 0.1mM,0.903 ± 0.14
same,NP40-soluble protein abundance,concentration: 0.5mM,0.888 ± 0.12
P86790 and related entries (UniProt P86791+P86790),NP40-soluble protein abundance,concentration: 0.1mM,1.06 ± 0.042
same,NP40-soluble protein abundance,concentration: 0.5mM,1.07 ± 0.057
UniProt P63167,NP40-soluble protein abundance,concentration: 0.1mM,0.972 ± 0.12
same,NP40-soluble protein abundance,concentration: 0.5mM,1.02 ± 0.077
SLC16A1 (UniProt P53985),NP40-soluble protein abundance,concentration: 0.1mM,1 ± 0.041
same,NP40-soluble protein abundance,concentration: 0.5mM,1.06 ± 0.093
UniProt P62753,NP40-soluble protein abundance,concentration: 0.1mM,0.927 ± 0.13
same,NP40-soluble protein abundance,concentration: 0.5mM,0.89 ± 0.15
UniProt P82970,NP40-soluble protein abundance,concentration: 0.1mM,0.915 ± 0.049
same,NP40-soluble protein abundance,concentration: 0.5mM,1.03 ± 0.085
PTTG1IP (UniProt P53801),NP40-soluble protein abundance,concentration: 0.1mM,0.98 ± 0.04
same,NP40-soluble protein abundance,concentration: 0.5mM,0.941 ± 0.053
NCKAP1L (UniProt P55160),NP40-soluble protein abundance,concentration: 0.1mM,1.05 ± 0.11
same,NP40-soluble protein abundance,concentration: 0.5mM,1.04 ± 0.06
UniProt P80217 and related entries,NP40-soluble protein abundance,concentration: 0.1mM,1.01 ± 0.031
same,NP40-soluble protein abundance,concentration: 0.5mM,0.9965 ± 0.0073
SEC13 (UniProt P55735),NP40-soluble protein abundance,concentration: 0.1mM,1.05 ± 0.075
same,NP40-soluble protein abundance,concentration: 0.5mM,1.05 ± 0.024
UniProt P53396 and related entries,NP40-soluble protein abundance,concentration: 0.1mM,1.04 ± 0.076
same,NP40-soluble protein abundance,concentration: 0.5mM,1.03 ± 0.052
UniProt P60900 and related entries,NP40-soluble protein abundance,concentration: 0.1mM,1.01 ± 0.025
same,NP40-soluble protein abundance,concentration: 0.5mM,0.9928 ± 0.0045
UniProt P61289 and related entries,NP40-soluble protein abundance,concentration: 0.1mM,0.902 ± 0.011
same,NP40-soluble protein abundance,concentration: 0.5mM,0.712 ± 0.28
UniProt Q00653 and related entries,NP40-soluble protein abundance,concentration: 0.1mM,1.01 ± 0.025
same,NP40-soluble protein abundance,concentration: 0.5mM,1.03 ± 0.041
same,NP40-soluble protein abundance,concentration: 1mM,1.006 ± 0.0072
same,NP40-soluble protein abundance,concentration: 2mM,0.99 ± 0.026
same,NP40-soluble protein abundance,concentration: 4mM,0.971 ± 0.025
same,NP40-soluble protein abundance,concentration: 6mM,0.995 ± 0.022
same,NP40-soluble protein abundance,concentration: 8mM,0.965 ± 0.021
same,NP40-soluble protein abundance,concentration: 10mM,0.973 ± 0.012
UniProt P60228,NP40-soluble protein abundance,concentration: 0.1mM,0.934 ± 0.049
same,NP40-soluble protein abundance,concentration: 0.5mM,0.953 ± 0.043
same,NP40-soluble protein abundance,concentration: 1mM,0.999 ± 0.024
same,NP40-soluble protein abundance,concentration: 2mM,0.999 ± 0.051
same,NP40-soluble protein abundance,concentration: 4mM,1.08 ± 0.035
same,NP40-soluble protein abundance,concentration: 6mM,1.23 ± 0.063
same,NP40-soluble protein abundance,concentration: 8mM,1.34 ± 0.073
same,NP40-soluble protein abundance,concentration: 10mM,1.49 ± 0.12
UniProt P63218,NP40-soluble protein abundance,concentration: 0.1mM,0.88 ± 0.2
same,NP40-soluble protein abundance,concentration: 0.5mM,0.802 ± 0.21
same,NP40-soluble protein abundance,concentration: 1mM,0.812 ± 0.15
same,NP40-soluble protein abundance,concentration: 2mM,0.735 ± 0.17
same,NP40-soluble protein abundance,concentration: 4mM,0.799 ± 0.22
same,NP40-soluble protein abundance,concentration: 6mM,0.72 ± 0.12
same,NP40-soluble protein abundance,concentration: 8mM,0.77 ± 0.16
same,NP40-soluble protein abundance,concentration: 10mM,0.678 ± 0.18
EIF5 (UniProt P55010),NP40-soluble protein abundance,concentration: 0.1mM,1.01 ± 0.024
same,NP40-soluble protein abundance,concentration: 0.5mM,1.05 ± 0.06
UniProt P59190,NP40-soluble protein abundance,concentration: 0.1mM,1.35 ± 0.11
same,NP40-soluble protein abundance,concentration: 0.5mM,1.1 ± 0.11
same,NP40-soluble protein abundance,concentration: 1mM,1.18 ± 0.054
same,NP40-soluble protein abundance,concentration: 2mM,2.37 ± 1.5
same,NP40-soluble protein abundance,concentration: 4mM,1.25 ± 0.21
same,NP40-soluble protein abundance,concentration: 6mM,1.16 ± 0.23
same,NP40-soluble protein abundance,concentration: 8mM,1.22 ± 0.2
same,NP40-soluble protein abundance,concentration: 10mM,1.18 ± 0.15
UniProt P62854,NP40-soluble protein abundance,concentration: 0.1mM,0.915 ± 0.19
same,NP40-soluble protein abundance,concentration: 0.5mM,0.862 ± 0.17
same,NP40-soluble protein abundance,concentration: 1mM,0.92 ± 0.095
same,NP40-soluble protein abundance,concentration: 2mM,0.912 ± 0.11
same,NP40-soluble protein abundance,concentration: 4mM,0.911 ± 0.18
same,NP40-soluble protein abundance,concentration: 6mM,0.809 ± 0.13
same,NP40-soluble protein abundance,concentration: 8mM,0.745 ± 0.099
same,NP40-soluble protein abundance,concentration: 10mM,0.843 ± 0.13
UniProt P62829,NP40-soluble protein abundance,concentration: 0.1mM,0.966 ± 0.081
same,NP40-soluble protein abundance,concentration: 0.5mM,0.936 ± 0.08
UniProt P56181 and related entries,NP40-soluble protein abundance,concentration: 0.1mM,0.963 ± 0.044
same,NP40-soluble protein abundance,concentration: 0.5mM,0.969 ± 0.044

# 2 entries drawn at random from the list so far:
target,measurement,setting,value
UniProt P63218,NP40-soluble protein abundance,concentration: 10mM,0.678 ± 0.18
UniProt P57768 and related entries,NP40-soluble protein abundance,concentration: 0.5mM,1.01 ± 0.036

# Some of the entries above, reformatted:
target | measurement | setting | value
P68032 and related entries (UniProt P68133+P68032) | NP40-soluble protein abundance | concentration: 0.1mM | 1.14 ± 0.062
HDAC4 (UniProt P56524) | NP40-soluble protein abundance | concentration: 0.1mM | 1.04 ± 0.1
UniProt Q00653 and related entries | NP40-soluble protein abundance | concentration: 8mM | 0.965 ± 0.021
UniProt P63218 | NP40-soluble protein abundance | concentration: 0.1mM | 0.88 ± 0.2
EIF5 (UniProt P55010) | NP40-soluble protein abundance | concentration: 0.5mM | 1.05 ± 0.06
